In paper PMC7819943, “Rice protein-binding microarrays: a tool to detect cis-acting elements near promoter regions in rice” one finds binding signal data, which are given here for 42 sequences.

Chains of the proteins cited; added tags and fusions are not shown.
UniProt Q0JBA9, entry or part of it: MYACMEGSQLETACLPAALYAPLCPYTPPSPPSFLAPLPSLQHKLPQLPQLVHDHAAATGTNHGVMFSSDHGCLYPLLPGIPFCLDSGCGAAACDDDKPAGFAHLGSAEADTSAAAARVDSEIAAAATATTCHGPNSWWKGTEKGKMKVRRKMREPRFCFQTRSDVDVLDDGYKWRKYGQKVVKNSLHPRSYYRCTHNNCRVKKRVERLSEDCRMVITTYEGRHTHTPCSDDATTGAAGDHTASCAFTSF

This is one part of the list.

The test deals with OsWRKY34 (Oryza sativa, UniProt Q0JBA9 1-250). In words: protein-binding microarray (RPBM); PBS, 2% BSA, 51.3 ng/ul salmon testes DNA, 50 uM zinc acetate, 200 nM TF, 25 C, 1 h; high values mean tight binding. The conditions noted are these: protein: recombinant; tags: N-terminal polyhistidine and DsRed monomer fusion (pET32a); label: CyDye5-dUTP incorporated in the synthesized complementary strand; 3' TTTTT single-stranded linker to array surface; dsDNA, one strand shown. In outline: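 The binding signal is fluorescence intensity per feature, in arbitrary units, read on an Axon 4000B scanner. Polyhistidine- and DsRed-tagged transcription factors (N-terminal fusions) from E. coli BL21-CodonPlus were purified on Ni–NTA and applied at 200 nM for 1 h at 25 °C to a double-stranded, BSA-blocked custom Agilent array in buffer with 50 µM zinc acetate.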
Consider “TCACCTCCTGCATCACCAGCACCACTCTCCGCCTCCCTGGCGGAGTCACCTAGTGCAG”, for which the binding signal was 9420 fluorescence intensity (a.u.).

As for “CCCTCCCGTCAGTTGACCGTTAGTTGACCGTGTATTTTCTCGGAGTCACCTAGTGCAG”, the binding signal was 12200 fluorescence intensity (a.u.).

“TTTCGATAATCATCAGCATACATTTTTCCTTTTTCTGGGGCGGAGTCACCTAGTGCAG”: the binding signal is 8650 fluorescence intensity (a.u.).

Take “ATATATGTATGTATGTGTGTGTGTATTACGTCAAAGAATACGGAGTCACCTAGTGCAG”: the binding signal was 8240 fluorescence intensity (a.u.).

Consider “TTCAGTAGTAACCCACTTGTCCCCGTTTGACCGCTTCGTCCGGAGTCACCTAGTGCAG”, for which the binding signal is 10800 fluorescence intensity (a.u.).

As to “AGTCCTTGTCTATTCCGGGCTAGGGTTTTCGGTTCAAAACCGGAGTCACCTAGTGCAG”, the binding signal was 10200 fluorescence intensity (a.u.).

As for “ATCTCGGCTGCCCAAATTCCTGAAATCAACTGTCTATCCTCGGAGTCACCTAGTGCAG”, the binding signal was 8160 fluorescence intensity (a.u.).

On to “GCGTATTGACTGTTGAGCCCGGCCCGTATGAATCCCTTGTCGGAGTCACCTAGTGCAG”, for which the binding signal was 10700 fluorescence intensity (a.u.).

With “ATGATACAATGGCCTAACTCTGCTCTGATACCAAATGATACGGAGTCACCTAGTGCAG”, the binding signal is 8460 fluorescence intensity (a.u.).

In the case of “TCAGTGAATAAATCGCTAGCCAACTCGCTCCCGGGTTTTGCGGAGTCACCTAGTGCAG”, the binding signal was 8920 fluorescence intensity (a.u.).

For the sequence “ATCCAAACCAATGTCCGTTAATCAGAGTTACTTACCATCACGGAGTCACCTAGTGCAG”, the binding signal was 8600 fluorescence intensity (a.u.).

With “ATCTTCTTCCAGTCTCCTCTTGATCTGTTCAGCAAACCCGCGGAGTCACCTAGTGCAG”, the binding signal is 8140 fluorescence intensity (a.u.).

With “ACCCCGACCCCTTCAATCGCGCCCGCCTCAGCCGCCTTCTCGGAGTCACCTAGTGCAG”, the binding signal is 12600 fluorescence intensity (a.u.).

Turning to “GTGGTCGTGTGGATATACCTTCTCTTCGGTGGTGGAATTGCGGAGTCACCTAGTGCAG”, the binding signal is 9320 fluorescence intensity (a.u.).

With “AACAGTTGACGCAGGTGGCAGAGTTGCTAGTTCTTGCCCTCGGAGTCACCTAGTGCAG”, the binding signal is 61500 fluorescence intensity (a.u.).

Turning to “CACTTGATTAATTTATCCTCTCCTCGCGTCGCTGTCGCGTCGGAGTCACCTAGTGCAG”, the binding signal was 8320 fluorescence intensity (a.u.).

On to “TGGTTGTGTTTGCTCTGGATTCCATCTTCCTCCTCAGCTCCGGAGTCACCTAGTGCAG”, for which the binding signal was 8270 fluorescence intensity (a.u.).

For the sequence “TGTTGTCATGAATAAAATCTTCACTTGTGCTGTCATTATTCGGAGTCACCTAGTGCAG”, the binding signal is 8240 fluorescence intensity (a.u.).

On to “ATCCCAAGTTGCCTTTTCATTGCTATATAAACTAGCTTGACGGAGTCACCTAGTGCAG”, for which the binding signal was 10500 fluorescence intensity (a.u.).

Consider “GGGAGGGGTGAATGGTCATGATGAATGATGTTGCTGCATTCGGAGTCACCTAGTGCAG”, for which the binding signal was 9590 fluorescence intensity (a.u.).

As for “ACATATCTCCTCTCTGTATTTAGTCCCGCATTTTGAGAAGCGGAGTCACCTAGTGCAG”, the binding signal was 8050 fluorescence intensity (a.u.).

Turning to “AGCTTCAACCACGTACATGTTGTTTCTCTGTATGCTTCTACGGAGTCACCTAGTGCAG”, the binding signal was 8960 fluorescence intensity (a.u.).

For the sequence “TGCATTACAATGTACAATAAAAATTTTCCTCGTTTGGGTTCGGAGTCACCTAGTGCAG”, the binding signal was 10600 fluorescence intensity (a.u.).

Turning to “GGGAAGGGGAGGGGTGGGCGGAAGGGGACGCCGGTGGTGGCGGAGTCACCTAGTGCAG”, the binding signal is 17900 fluorescence intensity (a.u.).

On to “AATACAGTTTTACGCTATTCATGTTCAACGTTTGACGTTCCGGAGTCACCTAGTGCAG”, for which the binding signal is 8500 fluorescence intensity (a.u.).

For “ATCTTGTTTCTGGCCTTATGTGCGAAGCCCACAGCGACTACGGAGTCACCTAGTGCAG”, the binding signal was 10800 fluorescence intensity (a.u.).

On to “CTCTCTACCTACACACTTTTTCTCGAATTTGCGTTAACCCCGGAGTCACCTAGTGCAG”, for which the binding signal is 8090 fluorescence intensity (a.u.).

For the sequence “ATACATGACGCCGTTGATTTTTTAATCAACGTTTGACCATCGGAGTCACCTAGTGCAG”, the binding signal is 8210 fluorescence intensity (a.u.).

For the sequence “GGGAGTGGGGTGGCATGGTGGGTTTTTCACCCAATAATTTCGGAGTCACCTAGTGCAG”, the binding signal was 9890 fluorescence intensity (a.u.).

With “GGTTTTTGGTCAGGTCTGTGTTTACCTCGAATTCGAAAAGCGGAGTCACCTAGTGCAG”, the binding signal is 10200 fluorescence intensity (a.u.).

In the case of “GCTCGTCTCTCGCGTTAACCCCTCGTGGCCTCAGCTCGTCCGGAGTCACCTAGTGCAG”, the binding signal is 8580 fluorescence intensity (a.u.).

Regarding “GCTCATTGTGTTGTTCTTATTATCTTTACCCTCTACATCACGGAGTCACCTAGTGCAG”, the binding signal is 13300 fluorescence intensity (a.u.).

For the sequence “CCAATTTTCCCAGGCTCTGCAACGTCTATCTTTTCATTTCCGGAGTCACCTAGTGCAG”, the binding signal is 10100 fluorescence intensity (a.u.).

For “GCGTGGCGGAGGGTGGGGATGGCGTGAGCTTCAGACTGCCCGGAGTCACCTAGTGCAG”, the binding signal was 11000 fluorescence intensity (a.u.).

For the sequence “GAATTTTCTGTGACATTTGCTAGTTGGTGTACACTTTATACGGAGTCACCTAGTGCAG”, the binding signal is 10500 fluorescence intensity (a.u.).

As to “AACTCTTGATGACACGCTGCCTTTTCTTTACACGGACGAACGGAGTCACCTAGTGCAG”, the binding signal was 8140 fluorescence intensity (a.u.).

Consider “TGGTGAGCTTCCTTTTCATCCATGGTGCCTCTTTTGAATTCGGAGTCACCTAGTGCAG”, for which the binding signal was 10600 fluorescence intensity (a.u.).

Consider “TTTGGCTGGGTTGTGGGTCCCGAATTAGAGGTGGGGAGTGCGGAGTCACCTAGTGCAG”, for which the binding signal is 9060 fluorescence intensity (a.u.).

Consider “TTTTCCCCATCACGCGATTGTATTTGTTGCCTCCGAGAGACGGAGTCACCTAGTGCAG”, for which the binding signal was 8930 fluorescence intensity (a.u.).

“CTCCGGATTTCCTGGTTTTTTTTTCTTCTTCTTCGTCGTCCGGAGTCACCTAGTGCAG”: the binding signal is 10700 fluorescence intensity (a.u.).

For the sequence “TGCAGCTACACCCACTACTCCTCATCTCTCCTCTTCTTTACGGAGTCACCTAGTGCAG”, the binding signal was 10600 fluorescence intensity (a.u.).

“TGGGTGGGTGCGGCGTGGAGTGACGTGGCGGCGGGTGTGGCGGAGTCACCTAGTGCAG”: the binding signal was 8590 fluorescence intensity (a.u.).
